Here are results for 51 molecules from paper PMC12040169 (PLOS Biology, 2025).

This is one part of the list.

The test system of the experiment is T1, CTL2-GFP (C. trachomatis L2/434/Bu, GFP-expressing).
T1 construct: L2/434/Bu, GFP-expressing
Details: species or system HeLa; Intracellular C. trachomatis growth in HeLa cells, bulk GFP fluorescence relative to DMSO. Conditions: bulk GFP, single well; 28.5 h, 10 µM; inhibitor.
With `OC(CN1CCC(O)(c2ccc(F)cc2)CC1)c1ccc(Cl)cc1` (stereo not drawn) [CBK283311], the “% of control remaining” value is 117.601%. With `Nc1ncnc(NCCc2c[nH]c3ccccc23)c1[N+](=O)[O-]` [CBK267283], the “% of control remaining” value was 126.134%. The value for `CCCCC(=O)NC1CCN(C(=O)c2cccc(C#N)c2)CC1` [CBK306309] was 101.179%; that for `CCOc1cc(NC2CCN(C(=O)C(C)(C)C3CCCC3)CC2)ncn1` [CBK304430] was 92.1176%.

Take `CC(=O)Nc1cccc(-c2ccc(N3CCN(CCN(C)C)CC3)nc2)c1` [CBK036857]: the “% of control remaining” value came to 198.667%. The value for `CCCCOC(=O)CCc1nc2ccccc2nc1O` [CBK264523] was 100%. The value for `CCOCCCNC(=O)c1ccc(-c2cc(Oc3ccc(OC)cc3)ncn2)cc1` [CBK291209] was 93.0181%.

As to `C1=Nn2c(nnc2-c2ccncc2)SC(c2ccccc2)=C1` [CBK288535], the “% of control remaining” value was determined as 122.34%. Turning to `Cc1ccc(S(=O)(=O)N2CCC(C(=O)NC3(C(=O)O)CCCCC3)CC2)cc1` [CBK295644], the “% of control remaining” value is 140.036%. The value for `N#Cc1nc(COc2ccc(Br)cc2)oc1NC1CC1` [CBK266470] was 129.213%; that for `CN1CCN(c2nc(-c3ccco3)cn3ccnc23)CC1` [CBK038045] was 135.764%; that for `CC(=O)c1cccc(NC(=O)c2cccn(Cc3ccc(C)cc3)c2=O)c1` [CBK294427] was 101.125%. With `Cc1n[nH]c(-c2ccccc2NC(=O)Cc2sc(C)nc2-c2cccs2)n1` [CBK297737] the figure was 108.925%; with `CCN(CC)C(=O)CN1CCC(Oc2nccnc2OCCN2CCOCC2)CC1` [CBK082928], 116.121%; with `CC(C)(C)C(=O)N1CCCC(c2cc3cccnc3[nH]2)C1` (stereo not drawn) [CBK284945], 93.3217%.

Turning to `COc1cc(/C=C/c2cc(C(F)(F)F)[nH]c(=O)n2)c(Cl)cc1O` [CBK287936], the “% of control remaining” value came out at 102.224%.

As for `COc1ccccc1N1CCN(C(=O)CC2(CC(=O)O)CCCC2)CC1` [CBK296137], the “% of control remaining” value amounted to 108.039%. With `Cc1cc(Cl)cc(Br)c1OCCN1CCN(C)CC1` [CBK269668C] the figure was 133.078%.

As for `Cc1cc2ncn(CC(=O)NCc3ccccc3)c2cc1C` [CBK200213], the “% of control remaining” value was found to be 63.4125%. The value for `Cc1cc(C)n(C(C)CC(=O)N2CCCCC2CCN2CCCC2)n1` (stereo not drawn) [CBK282078] was 121.833%; that for `CC(C)CNC(=O)N1CCN(CCN2CCOCC2)CC1` [CBK155826] was 107.478%; that for `CC(=O)N1CCN(C(=O)C(C)S(=O)(=O)c2ccccc2F)CC1` (stereo not drawn) [CBK305603] was 138.466%. With `COc1ccc(-c2nnc(SCc3csc(Nc4ccccc4)n3)n2-c2ccccc2)cc1` [CBK265205] the figure was 128.643%; with `c1ccc2c(c1)OCC(COc1nccc(N3CCCNCC3)n1)O2` (stereo not drawn) [CBK085471], 96.2045%; with `FC(F)(F)c1ccnc(OCCc2c[nH]c3ccccc23)n1` [CBK116625], 138.784%.

Turning to `COc1ccc(Cl)cc1N1CCN(Cc2ccc(C(C)C)cc2)CC1` [CBK126407], the “% of control remaining” value was found to be 97.4664%.

As for `COC(=O)c1cccc(OCC(O)Cn2ccnc2)c1` (stereo not drawn) [CBK307408], the “% of control remaining” value amounted to 99.9615%. `CCOC(=O)C1CC1CN1CCCN(S(=O)(=O)c2ccc(C(=O)c3ccccc3)cc2)CC1` (stereo not drawn) [CBK063028]: the “% of control remaining” value is 102.031%. The value for `Cc1ccc(-n2nc(-c3ccc(NC(=O)c4ccccc4)cc3)cc2NC(=O)c2ccccc2)cc1` [CBK261265] was 104.831%; that for `O=C(c1ccco1)N1Cc2nc[nH]c2C[C@H]1c1nc(-c2ccc3ccccc3c2)no1` [CBK288965] was 109.197%. With `COc1ccc(C2(C(F)(F)F)NC(=O)N3CCN=C3S2)cc1` (stereo not drawn) [CBK019170] the figure was 98.6773%.

With `CC(C)=NNC(=O)CN(c1ccc(C)cc1)S(=O)(=O)c1ccccc1` [CBK262280], the “% of control remaining” value is on record as 98.7553%. For the molecule `CC(Cc1cccs1)NC(=O)c1cc(C2CC2)on1` (stereo not drawn) [CBK283244], the “% of control remaining” value is 85.5957%. The value for `Cc1noc(C)c1NC(=O)N(Cc1ccccc1C(F)(F)F)C1CCC(N)CC1` (stereo not drawn) [CBK045963C] was 75.7963%; that for `CC(Oc1ccccc1)C(=O)Nc1ccccc1-c1ccccc1` (stereo not drawn) [CBK264059] was 85.2176%; that for `CNC(C)Cc1ccccc1Sc1ccccc1` (stereo not drawn) [CBK027167G] was 159.622%. As to `CCC(C)(CC(=O)O)CC(=O)N1CCC2(C1)NCCc1c2[nH]c2ccccc12` (stereo not drawn) [CBK047003], the “% of control remaining” value worked out at 105.497%. For the molecule `COC(=O)NC(=S)Nc1ccc2c(c1)OCCO2` [CBK018644], the “% of control remaining” value is on record as 124.442%. In the case of `COc1ccc(CN2CCCc3ccccc32)cc1` [CBK126458], the “% of control remaining” value is recorded as 116.544%.

Turning to `CCN(CC)CCNC(=O)C1CCCCN1S(=O)(=O)c1ccc(C)cc1` (stereo not drawn) [CBK101088], the “% of control remaining” value was 97.9843%. For `O=C(Nc1ccccc1C(=O)O)c1ccccc1Cl` [CBK287114], the “% of control remaining” value was 110.668%.

`Cc1nc2ccc(C(=O)N3CCCCC3)cn2c1N(C)C=O` [CBK145480]: the “% of control remaining” value was determined as 98.0239%. With `CC(NCc1nc(=O)c2sccc2[nH]1)c1ccc2c(c1)OCCO2` (stereo not drawn) [CBK295157] the figure was 142.968%. With `Cc1ccc(CNC(=O)c2ccc(-n3ccnc3)c(-n3cccc3)c2)o1` [CBK284812] the figure was 128.55%. The value for `Cc1ccc(OCC(=O)Nc2ncn(Cc3cccnc3)n2)cc1` [CBK304888] was 114.178%; that for `O=C(NCc1ccccc1)c1cnsn1` [CBK267302] was 147.367%. Turning to `CCC1=C(C)C(=O)N(C(=O)NCCc2ccc(S(=O)(=O)NC(=O)NC3CCC(C)CC3)cc2)C1` (stereo not drawn) [CBK011561], the “% of control remaining” value is listed as 113.089%. With `Cc1ncc(COP(=O)(O)O)c(/C=N/c2ccc3ccccc3c2)c1O` [CBK261460] the figure was 68.7248%; with `Cc1ccc(-c2nc3ccccc3s2)cc1NC(=O)c1sc2ccccc2c1Cl` [CBK263865], 145.44%; with `Cn1ncc2c(=O)n(Cc3noc(-c4ccsc4)n3)cnc21` [CBK305056], 145.063%. With `CC(C)COC(=O)N1CCC(N(C)Cc2ccc(-c3ccc(S(C)(=O)=O)cc3)nc2)CC1` [CBK165259T] the figure was 96.5572%.
